Data as given in PubChem BioAssay AID1259254 (NCATS, 2017).
The whole screen tested about 59,000 reagents; shown is a random part of them. About 1,550 of all reagents (2.6%) count as active. 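G2 share is only a proxy for re-replication; each gene was hit by three separate siRNAs, and active genes were retested.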 Unmarked entries are inactive. Reagents against one gene are numbered here. Not all columns of the deposit are shown. Reagent sequences are not shown. The record does not give: the amount of reagent.

Test: 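Genome-wide screen for genes that prevent DNA re-replication in cancer cells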 (primary screen)
Cells: human HCT116 colorectal cancer cells
Reagent: single siRNA against human genes
Duration: 3 days
Measured: 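Nuclei stained with Hoechst and imaged; cell-cycle phase assigned by DNA content; G2 share scaled per plate, non-targeting siRNA 0%, GMNN siRNA 100%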
Reading the numbers: G2 robust z-score: higher = more G2 cells, more excess DNA replication
Hit rule: 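Active siRNAs have a G2 robust z of 5 or more median absolute deviations over the median, which in these data means about 38% or higher of GMNN control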

{"gene": "TIFA", "reagent": 1, "G2 robust z-score": -0.693}
{"gene": "TIFA", "reagent": 2, "G2 robust z-score": -0.00517}
{"gene": "TIFA", "reagent": 3, "G2 robust z-score": 0.351}
{"gene": "ACLY", "reagent": 1, "G2 robust z-score": -0.104}
{"gene": "ACLY", "reagent": 2, "G2 robust z-score": -0.907}
{"gene": "ACLY", "reagent": 3, "G2 robust z-score": -0.0366}
{"gene": "DEFB123", "reagent": 1, "G2 robust z-score": 1.13}
{"gene": "DEFB123", "reagent": 2, "G2 robust z-score": 0.934}
{"gene": "DEFB123", "reagent": 3, "G2 robust z-score": -0.383}
{"gene": "CLRN3", "reagent": 1, "G2 robust z-score": 2.51}
{"gene": "CLRN3", "reagent": 2, "G2 robust z-score": -0.534}
{"gene": "CLRN3", "reagent": 3, "G2 robust z-score": -0.27}
{"gene": "FASTKD1", "reagent": 1, "G2 robust z-score": 1.39}
{"gene": "FASTKD1", "reagent": 2, "G2 robust z-score": -0.779}
{"gene": "FASTKD1", "reagent": 3, "G2 robust z-score": 0.899}
{"gene": "EFCAB11", "reagent": 1, "G2 robust z-score": -1.06}
{"gene": "EFCAB11", "reagent": 2, "G2 robust z-score": 1.23}
{"gene": "EFCAB11", "reagent": 3, "G2 robust z-score": 2.54}
{"gene": "HOXD11", "reagent": 1, "G2 robust z-score": -0.687}
{"gene": "HOXD11", "reagent": 2, "G2 robust z-score": -1.37}
{"gene": "HOXD11", "reagent": 3, "G2 robust z-score": -0.863}
{"gene": "MUS81", "reagent": 1, "G2 robust z-score": 1.12}
{"gene": "MUS81", "reagent": 2, "G2 robust z-score": 1.02}
{"gene": "MUS81", "reagent": 3, "G2 robust z-score": -0.414}

Part of the list above in another layout:
gene,reagent,G2 robust z-score
FASTKD1,3,0.899
EFCAB11,1,-1.06
EFCAB11,2,1.23
